PubChem BioAssay AID1159578 | Peter MacCallum Cancer Centre | 2015

Aim: 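Genome-wide hunt for genes controlling movement of lymphatic endothelial cells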 (primary screen)
Cells: human lymphatic endothelial cells
Reagent: siRNA pool against human genes, 40 nM
Duration: 48 h after transfection
Detection: 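Cells stained with dye and imaged after a scratch; covered wound area and nuclei counted, duplicates averaged, migration set against mock wells and turned into a robust z-score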
Reading the numbers: migration robust z-score: higher = faster migration into the scratch; nuclei per well: higher = more cells in the well
Call rule: 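Migration changed when robust z exceeds 2 or falls below -2 and mean nuclei number is at least 3300; otherwise not called changed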
Meaning of the calls: active = migration changed; inactive = no migration change, or too few cells
This is a random part of about 18,000 deposited reagents. About 1,030 of them (5.7%) count as active. 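Inactive calls also include pools with fewer than 3300 nuclei, whose migration was not assessed.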 Raw values vary from plate to plate and are shown uncorrected. Unmarked entries are inactive. Further read-outs or replicates are left out here.

no.	gene	PubChem SID	migration robust z-score	migration class with cell-count check	nuclei per well, duplicate mean
1	SYT7	SID255354006	0.48	migration z between -2 and 2; enough cells	5999
2	SPTY2D1	SID255363205	-0.74	migration z between -2 and 2; enough cells	5771
3	DMC1	SID255355627	0.98	under 3300 nuclei; migration not judged	3158
4	PRAP1	SID255362444	-0.98	migration z between -2 and 2; enough cells	5651
5	SCEL	SID255353818	-0.08	migration z between -2 and 2; enough cells	6253
6	OR5AS1	SID255364168	0.07	migration z between -2 and 2; enough cells	5913
7	FKBP15	SID255356148	-0.76	migration z between -2 and 2; enough cells	6430
8	DAPK1	SID255349238	-0.8	migration z between -2 and 2; enough cells	4466
9	GPATCH3	SID255359766	0.21	migration z between -2 and 2; enough cells	5800
10	TBC1D10A	SID255361110	0.35	migration z between -2 and 2; enough cells	6012
11	APEX1	SID255348337	-0.72	migration z between -2 and 2; enough cells	3605
12	CHRM1	SID255348912	-1.12	migration z between -2 and 2; enough cells	5190
13	TRIM64C	SID255366118	0.26	migration z between -2 and 2; enough cells	5141
14	TRIM64C	SID255366127	-0.26	migration z between -2 and 2; enough cells	4826
15	KCTD7	SID255363603	1.04	migration z between -2 and 2; enough cells	6004
16	CNTN5	SID255357955	1.03	migration z between -2 and 2; enough cells	5788
17	SHQ1	SID255358461	0.76	migration z between -2 and 2; enough cells	5880
18	RIT1	SID255352127	-1.79	migration z between -2 and 2; enough cells	4899
19	CERS2	SID255357244	-0.86	migration z between -2 and 2; enough cells	3704
20	PPARA	SID255351713	0.73	migration z between -2 and 2; enough cells	5682
21	FCAMR	SID255361146	-0.81	migration z between -2 and 2; enough cells	5652
22	PTPN14	SID255351954	1.09	migration z between -2 and 2; enough cells	6044
23	KANSL2	SID255358282	-1.65	migration z between -2 and 2; enough cells	4534
24	SFTPA2B (retired record)	SID255352386	0.42	migration z between -2 and 2; enough cells	5592
25	AKT1S1	SID255361344	-0.54	migration z between -2 and 2; enough cells	6558
26	EEPD1	SID255360821	0.52	migration z between -2 and 2; enough cells	5140
27	DNA2	SID255349329	-1.14	migration z between -2 and 2; enough cells	5058
28	STX1A	SID255352684	-0.1	migration z between -2 and 2; enough cells	6279
29	KCNJ15	SID255350619	-0.52	migration z between -2 and 2; enough cells	4980
30	LIAS	SID255355528	-0.31	migration z between -2 and 2; enough cells	5312
31	KNSTRN	SID255361824	0.7	migration z between -2 and 2; enough cells	6574
32	VCAN	SID255349134	-1.23	migration z between -2 and 2; enough cells	5740

Part of the list above, set out differently:
gene | PubChem SID | migration robust z-score | migration class with cell-count check | nuclei per well, duplicate mean
TBC1D10A | SID255361110 | 0.35 | migration z between -2 and 2; enough cells | 6012
APEX1 | SID255348337 | -0.72 | migration z between -2 and 2; enough cells | 3605
CHRM1 | SID255348912 | -1.12 | migration z between -2 and 2; enough cells | 5190
TRIM64C | SID255366118 | 0.26 | migration z between -2 and 2; enough cells | 5141

Additional entries follow:
no.	gene	PubChem SID	migration robust z-score	migration class with cell-count check	nuclei per well, duplicate mean
33	HROB	SID255360147	-4.56	under 3300 nuclei; migration not judged	2084
34	TMC3	SID255365132	0.28	migration z between -2 and 2; enough cells	6842
35	TF	SID255352819	-1.04	migration z between -2 and 2; enough cells	4979
36	GRM4	SID255350052	0.65	migration z between -2 and 2; enough cells	5244
37	NARF	SID255356790	-1.6	migration z between -2 and 2; enough cells	6175
38	RSPH1	SID255361729	0.68	migration z between -2 and 2; enough cells	6090
39	FSD1	SID255360259	0.11	migration z between -2 and 2; enough cells	5592
40	TTL	SID255363457	-0.18	migration z between -2 and 2; enough cells	6354
41	AKAP4	SID255353867	-0.64	migration z between -2 and 2; enough cells	7231
42	GABRB1	SID255349794	-1.27	migration z between -2 and 2; enough cells	4180
43	PER2	SID255353877	1.19	migration z between -2 and 2; enough cells	5830
44	TSR2	SID255361784	0.32	migration z between -2 and 2; enough cells	6056
45	THEMIS	SID255365439	0.33	migration z between -2 and 2; enough cells	4578
46	CEBPB	SID255348865	-3.45	under 3300 nuclei; migration not judged	3144
47	CAP1	SID255355122	-0.15	migration z between -2 and 2; enough cells	6772
48	LINC03042	SID255365571	1.52	migration z between -2 and 2; enough cells	6580
49	EDN3	SID255349429	0.76	migration z between -2 and 2; enough cells	6615
50	SLC16A4	SID255354051	1.06	migration z between -2 and 2; enough cells	5240
51	NHSL2	SID255365090	-0.56	migration z between -2 and 2; enough cells	5752
52	NHSL2	SID255365707	-0.54	migration z between -2 and 2; enough cells	4542
53	FOXR1	SID255364640	1.12	migration z between -2 and 2; enough cells	5880
54	TARBP2	SID255352749	-1.28	migration z between -2 and 2; enough cells	5796
55	PTER	SID255354184	0.13	migration z between -2 and 2; enough cells	6116
56	EDDM3B	SID255359866	-0.35	migration z between -2 and 2; enough cells	4974
57	RAB27A	SID255352009	0.47	migration z between -2 and 2; enough cells	5860
